Data as given in PubChem BioAssay AID1259425 (University of Nebraska Medical Center, 2018).
Purpose: 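Seek colon cancer weak points whose silencing resembles KSR1 loss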 (primary screen). Cells: HCT116 human colon cancer cells. Knock-down reagent: siRNA pool against human genes, 50 nM siRNA. Measured: 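After 50 nM siRNA pool, branched-DNA assay measures six marker transcripts per well, minus blank, normalised to the geometric mean of two housekeeping transcripts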. Reading the numbers: BNIP3L mRNA: higher = more BNIP3L transcript after knockdown; NDRG1 mRNA: higher = more NDRG1 transcript after knockdown; BNIP3 mRNA: higher = more BNIP3 transcript after knockdown; ALDOC mRNA: higher = more ALDOC transcript after knockdown; ACSL5 mRNA: higher = more ACSL5 transcript after knockdown.
Here is a random part of about 14,000 deposited reagents. Not given: the time to read-out.

gene	BNIP3L mRNA, set 1	NDRG1 mRNA, set 1	BNIP3 mRNA, set 1	ALDOC mRNA, set 1	ACSL5 mRNA, set 1
POP7 (POP7 ribonuclease P/MRP subunit)	0.148	0.27	0.417	0.106	0.143
PHLDB1 (pleckstrin homology like domain family B member 1)	0.0688	0.358	0.31	0.0526	0.137
TRIM37 (tripartite motif containing 37)	0.0714	0.1	0.237	0.0286	0.0875
MPI (mannose phosphate isomerase)	0.0596	0.272	0.245	0.0187	0.142
ZCCHC4 (zinc finger CCHC-type containing 4)	0.548	1.56	2.63	0.247	0.202
CEMIP (cell migration inducing hyaluronidase 1)	0.153	0.572	0.252	0.0217	0.457
GDF2 (growth differentiation factor 2)	0.122	0.605	0.257	0.0257	0.138
VWA1 (von Willebrand factor A domain containing 1)	0.252	1.73	0.415	0.0138	0.0978
CRY1 (cryptochrome circadian regulator 1)	0.199	0.0726	0.294	0.00993	0.111
CYP11B2 (cytochrome P450 family 11 subfamily B member 2)	0.0945	0.0768	0.205	0.0114	0.168
P4HB (prolyl 4-hydroxylase subunit beta)	0.0785	0.189	0.278	0.0107	0.0986
DIRAS2 (DIRAS family GTPase 2)	0.0727	0.233	0.299	0.0191	0.189
LOXL3 (lysyl oxidase like 3)	0.16	0.128	0.283	0.0399	0.177
CCR5 (C-C motif chemokine receptor 5)	0.0576	0.108	0.212	0.0151	0.0885
EEF2K (eukaryotic elongation factor 2 kinase)	0.104	0.101	0.315	0.00219	0.145
LTBR (lymphotoxin beta receptor)	0.0586	0.166	0.254	0.043	0.131
KIF7 (kinesin family member 7)	0.134	0.331	0.253	0.0256	0.124
ZIC2 (Zic family zinc finger 2)	0.0699	0.358	0.374	0.00594	0.318
BAG3 (BAG cochaperone 3)	0.139	0.157	0.315	0.0137	0.217
ATF7IP2 (activating transcription factor 7 interacting protein 2)	0.168	0.356	0.367	0.0621	0.163
NRXN1 (neurexin 1)	0.158	0.224	0.402	0.0364	0.128
CC2D1A (coiled-coil and C2 domain containing 1A)	0.66	2.44	2.7	0.136	0.469
INVS (inversin)	0.103	0.143	0.373	0.0431	0.314
TEX13B (testis expressed 13B)	0.187	0.247	0.659	0.063	0.307
TPM1 (tropomyosin 1)	0.0471	0.189	0.263	0.0171	0.152
TST (thiosulfate sulfurtransferase)	0.18	0.15	0.207	0.0326	0.125
MBD3 (methyl-CpG binding domain protein 3)	0.116	0.543	0.249	0.0154	0.208
PFN1P3 (profilin 1 pseudogene 3)	0.138	0.104	0.298	0.0154	0.135
RPP40 (ribonuclease P/MRP subunit p40)	0.119	0.241	0.287	0.0337	0.174

Part of the list above, reformatted:
| gene | BNIP3L mRNA, set 1 | NDRG1 mRNA, set 1 | BNIP3 mRNA, set 1 | ALDOC mRNA, set 1 | ACSL5 mRNA, set 1 |
| --- | --- | --- | --- | --- | --- |
| VWA1 (von Willebrand factor A domain containing 1) | 0.252 | 1.73 | 0.415 | 0.0138 | 0.0978 |
| CRY1 (cryptochrome circadian regulator 1) | 0.199 | 0.0726 | 0.294 | 0.00993 | 0.111 |
| CYP11B2 (cytochrome P450 family 11 subfamily B member 2) | 0.0945 | 0.0768 | 0.205 | 0.0114 | 0.168 |
| P4HB (prolyl 4-hydroxylase subunit beta) | 0.0785 | 0.189 | 0.278 | 0.0107 | 0.0986 |
| DIRAS2 (DIRAS family GTPase 2) | 0.0727 | 0.233 | 0.299 | 0.0191 | 0.189 |
| LOXL3 (lysyl oxidase like 3) | 0.16 | 0.128 | 0.283 | 0.0399 | 0.177 |
| CCR5 (C-C motif chemokine receptor 5) | 0.0576 | 0.108 | 0.212 | 0.0151 | 0.0885 |
| EEF2K (eukaryotic elongation factor 2 kinase) | 0.104 | 0.101 | 0.315 | 0.00219 | 0.145 |
| LTBR (lymphotoxin beta receptor) | 0.0586 | 0.166 | 0.254 | 0.043 | 0.131 |

Additional reagents follow.
gene	BNIP3L mRNA, set 1	NDRG1 mRNA, set 1	BNIP3 mRNA, set 1	ALDOC mRNA, set 1	ACSL5 mRNA, set 1
CAMKV (CaM kinase like vesicle associated)	0.133	0.373	0.198	0.00256	0.254
ATP1A4 (ATPase Na+/K+ transporting subunit alpha 4)	0.116	0.269	0.403	0.00921	0.0975
NFATC1 (nuclear factor of activated T cells 1)	0.0755	0.168	0.326	0.0116	0.0681
RNF126 (ring finger protein 126)	0.248	0.376	0.467	0.0569	0.136
ROCK1 (Rho associated coiled-coil containing protein kinase 1)	0.235	0.0589	0.388	0.0102	0.171
SLC27A4	0.101	0.723	0.351	0.0212	0.195
CCR4 (C-C motif chemokine receptor 4)	0.146	0.197	0.252	0.0228	0.189
DEDD (death effector domain containing)	0.152	0.0826	0.26	0.0121	0.148
RAI1 (retinoic acid induced 1)	0.0696	0.154	0.236	0.0153	0.159
SIX3 (SIX homeobox 3)	0.168	0.0967	0.296	0.00501	0.234
KIFC3 (kinesin family member C3)	0.0839	0.115	0.312	-0.00339	0.109
ZNF638 (zinc finger protein 638)	0.0836	0.151	0.244	0.0235	0.0942
MAPK8IP1 (mitogen-activated protein kinase 8 interacting protein 1)	0.0732	0.289	0.304	0.0101	0.431
MAP1B (microtubule associated protein 1B)	0.12	0.111	0.317	0.0459	0.108
ZNF208 (zinc finger protein 208)	0.129	0.193	0.324	0.0407	0.146
SLC22A16	0.136	0.186	0.255	0.0419	0.235
ABR (ABR activator of RhoGEF and GTPase)	0.136	0.191	0.415	0.0417	0.185
ACSS1 (acyl-CoA synthetase short chain family member 1)	0.25	1.05	0.187	0.0393	0.187
CD300LF (CD300 molecule like family member f)	0.0634	0.179	0.343	0.0281	0.243
SNX4 (sorting nexin 4)	0.107	1.06	0.374	0.0553	0.381
ROBO1 (roundabout guidance receptor 1)	0.0833	0.145	0.312	0.0208	0.0958
EMC1 (ER membrane protein complex subunit 1)	0.0795	0.128	0.284	0.0138	0.123
AACS (acetoacetyl-CoA synthetase)	0.0654	0.164	0.223	0.0171	0.126
CCNO (cyclin O)	0.107	0.214	0.251	0.0185	0.111
ACHE (acetylcholinesterase (Yt blood group))	0.103	0.234	0.216	0.0304	0.122
RUSC2 (RUN and SH3 domain containing 2)	0.386	0.672	0.718	0.0735	0.253
FCN3 (ficolin 3)	0.106	0.373	0.351	0.0545	0.126
NDUFV2 (NADH:ubiquinone oxidoreductase core subunit V2)	0.0332	0.812	0.32	0.0112	0.245
RASL11B (RAS like family 11 member B)	0.103	0.086	0.294	0.00986	0.113
CLCN4 (Cl-/H+ antiporter 4)	0.0546	1.05	0.213	0.0214	0.112
TNNT3 (troponin T3, fast skeletal type)	0.0329	0.11	0.212	0.0228	0.211
BST1 (bone marrow stromal cell antigen 1)	0.192	0.247	0.232	0.0269	0.267
ANKRD11 (ankyrin repeat domain 11)	0.0782	0.254	0.364	0.0384	0.0865
MYO1A (myosin IA)	0.101	0.279	0.196	0.036	0.322
